In the supplement of paper PMC3334620:
Whole data set: some 33,000 sequences, median “E-score (-0.5 to 0.5)” near -0.0059, cut for the highest 2% near 0.26. Some of the results follow.

What follows are sequences tested against T1, Cin5 (UniProt P40917) (assay: PBM E-score (8-mer binding enrichment) (E-score (-0.5 to 0.5)); higher = stronger / more preferred TF binding). Settings: protein concentration: 100 nM; construct: GST-full length.
T1 sequence: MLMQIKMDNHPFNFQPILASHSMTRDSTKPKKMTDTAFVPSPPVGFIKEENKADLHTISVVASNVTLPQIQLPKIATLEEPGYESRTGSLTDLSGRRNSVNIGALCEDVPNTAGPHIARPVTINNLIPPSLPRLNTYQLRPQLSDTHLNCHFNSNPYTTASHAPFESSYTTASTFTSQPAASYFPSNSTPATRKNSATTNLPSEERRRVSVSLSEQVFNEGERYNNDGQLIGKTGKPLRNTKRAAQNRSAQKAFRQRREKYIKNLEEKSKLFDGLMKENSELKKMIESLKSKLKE
Summary of the method: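 Universal all-10-mer Agilent arrays, fresh or stripped once, were converted to double-stranded form by primer extension. GST-tagged yeast transcription factors from PURExpress in vitro transcription/translation, full-length or DNA-binding domain only, were applied at about 100-200 nM and detected with fluorescent anti-GST. After masliner normalisation, the Universal PBM Analysis Suite scored each ungapped eight-base word together with its reverse complement by E-score.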

| Sequence | PBM E-score |
| --- | --- |
| AAGGCGCG | -0.135 |
| ATTCCAAT | 0.115 |
| ATGCAATC | 0.113 |
| CGTATGAA | 0.188 |
| ATGGACTA | 0.0277 |
| AAACCCGC | 0.0832 |
| CTTCTTTA | 0.0259 |
| CACACGAA | 0.141 |
| CCTATGGC | -0.0304 |
| AAACGGTC | -0.0402 |
| AGAATGGG | -0.00374 |
| GGCCGAAA | 0.129 |
| CTCCTTGC | -0.0389 |
| AACGAAGA | 0.0871 |
| GCGGTAAC | -0.0129 |
| AAGATCGG | -0.0731 |
| AAAACGTG | 0.0002 |
| GCCGCGCA | -0.145 |
| ACTCAGGA | -0.0204 |
| GGCCGCAC | -0.126 |
| GATGTAAA | 0.13 |
| TCGTAACA | 0.0155 |
| AATCCCGT | 0.255 |
| ATTACGGA | 0.322 |
| GGAAAAGA | 0.0239 |

| Sequence | PBM E-score |
| --- | --- |
| AGGATCTA | -0.272 |
| CCCTTAGC | -0.157 |
| CGTTAAAC | 0.115 |
| CACTAAAA | 0.139 |
| TATGATCA | 0.175 |
| GATCCGAA | 0.11 |
| AGAGGTAA | -0.0621 |
| ATGGAACA | -0.0505 |
| AGGGAAAC | -0.227 |
| ATAACAAG | 0.243 |
| AAAGGTAA | -0.00617 |
| CCTACAGG | -0.33 |
| CCAGCCCG | -0.177 |
| TCTTTCCA | -0.00712 |
| CTCCGGAA | -0.0124 |
| ACTATCCG | 0.188 |
| GACTACGC | -0.238 |
| ATATTTGG | 0.171 |
| CGATGGAC | -0.0148 |
| AATTCAAC | 0.181 |
| GGGCAGAC | -0.263 |
| CACCGGCC | -0.307 |
| CTCACTGA | 0.00932 |
| AATCGGCA | 0.209 |
| CAAAAGAG | 0.00829 |

| Sequence | PBM E-score |
| --- | --- |
| GGCAGTGA | -0.185 |
| AAAAGTTA | 0.128 |
| GCGTACGC | -0.247 |
| ACTTTCGA | 0.108 |
| GGCTGTGA | -0.161 |
| GAGCAACC | 0.0325 |
| ATTAGACG | 0.157 |
| ATTGAATA | 0.277 |
| CGAACGGC | -0.163 |
| ATTATGAG | 0.11 |
| ATCCACAG | 0.107 |
| AGTCTTCA | -0.131 |
| AGTAGGGG | 0.112 |
| AAAGTTGT | 0.241 |
| AACGAGGC | -0.198 |
| GATTGCCA | 0.0218 |
| AACCAAAT | 0.0972 |
| CTGCGTTA | -0.136 |
| GCATGACA | -0.115 |
| CTTCGGCC | -0.122 |
| ATAGACAT | -0.064 |
| GGAGACCC | -0.205 |
| CGGCTGCC | -0.0174 |
| ACGGGCCG | -0.158 |
| AGGATGTG | 0.114 |

| Sequence | PBM E-score |
| --- | --- |
| TCCAGTCA | -0.124 |
| GATTTAGC | 0.0167 |
| ATTTACTC | 0.151 |
| TAAACCAA | -0.0103 |
| AGCGTAAT | 0.13 |
| AGGTCGGA | -0.0427 |
| TGCTTAAA | 0.102 |
| GCCCTTCA | -0.229 |
| CATGTATC | 0.149 |
| CCAACGGG | -0.0861 |
| CGGTATCA | 0.0856 |
| GACGTCCC | -0.0301 |
| AGAACATG | 0.0594 |
| AGGTGGCC | -0.23 |
| CACAAGGG | -0.229 |
| ACACAGGT | -0.044 |
| ATAAGTAG | 0.0735 |
| AGTGGGAC | -0.132 |
| ATGCGAAA | 0.138 |
| CTTATCTA | 0.276 |
| AGATGCCA | 0.0194 |
| CCTTCCAG | -0.127 |
| GGCCCGCA | -0.0944 |
| AATGAAGA | 0.213 |
| CCATGACC | -0.155 |

An excerpt of these results, in CSV form.
Sequence,PBM E-score
AAAGGTAA,-0.00617
CCTACAGG,-0.33
CCAGCCCG,-0.177
TCTTTCCA,-0.00712
CTCCGGAA,-0.0124
ACTATCCG,0.188
GACTACGC,-0.238
ATATTTGG,0.171
CGATGGAC,-0.0148
AATTCAAC,0.181
GGGCAGAC,-0.263
CACCGGCC,-0.307
CTCACTGA,0.00932
AATCGGCA,0.209
CAAAAGAG,0.00829
GGCAGTGA,-0.185
AAAAGTTA,0.128
GCGTACGC,-0.247
ACTTTCGA,0.108
GGCTGTGA,-0.161
ATTAGACG,0.157
CGAACGGC,-0.163
ATTATGAG,0.11
ATCCACAG,0.107
AGTAGGGG,0.112
AAAGTTGT,0.241
AACGAGGC,-0.198
GATTGCCA,0.0218
AACCAAAT,0.0972
CTGCGTTA,-0.136
GCATGACA,-0.115
CTTCGGCC,-0.122
ATAGACAT,-0.064
GGAGACCC,-0.205
CGGCTGCC,-0.0174
ACGGGCCG,-0.158
AGGATGTG,0.114
TCCAGTCA,-0.124
GATTTAGC,0.0167
ATTTACTC,0.151
TAAACCAA,-0.0103
AGCGTAAT,0.13
AGGTCGGA,-0.0427
TGCTTAAA,0.102
GCCCTTCA,-0.229
CATGTATC,0.149
CCAACGGG,-0.0861
CGGTATCA,0.0856
GACGTCCC,-0.0301
AGAACATG,0.0594
AGGTGGCC,-0.23
CACAAGGG,-0.229
ACACAGGT,-0.044
ATAAGTAG,0.0735
AGTGGGAC,-0.132
ATGCGAAA,0.138
CTTATCTA,0.276
AGATGCCA,0.0194
CCTTCCAG,-0.127
GGCCCGCA,-0.0944
AATGAAGA,0.213
CCATGACC,-0.155

Remaining list, next part.

| Sequence | PBM E-score |
| --- | --- |
| AGAGCGTG | -0.0592 |
| AGCCGCGC | 0.086 |
| AATTACGA | 0.313 |
| CCTTGACG | -0.152 |
| GGTCTCCA | -0.0726 |
| GAGTCTTA | -0.21 |
| ATGTCATA | 0.299 |
| CACACCAA | 0.167 |
| GCCACCAA | 0.0137 |
| GTTCTAGA | -0.0278 |
| AGCTTTTG | 0.0342 |
| TCGTCGAA | -0.161 |
| CTGCTCCA | -0.0749 |
| ACTCGTCG | -0.0841 |
| TATTTTCA | 0.167 |
| TCTGGGAA | -0.0808 |
| AGCTACCT | -0.0535 |
| ATTGCGAG | 0.074 |
| AATCGACA | 0.226 |
| CCTAGTTC | 0.0162 |
| AAGTATAG | 0.0266 |
| CAATGCGG | 0.0282 |
| AGTACAAC | 0.0989 |
| CACTAGGG | -0.0698 |
| GGACACAC | -0.102 |

| Sequence | PBM E-score |
| --- | --- |
| CGAGCGCG | 0.0115 |
| ACTCAGGG | -0.0103 |
| CCCACTTA | 0.209 |
| CGCAACAG | -0.0481 |
| CCAGATCG | -0.134 |
| ACATAGAA | 0.244 |
| ATTTTCAA | 0.0848 |
| CAAACTAC | 0.0495 |
| AGCTGCCA | -0.105 |
| GCTCCCAC | -0.211 |
| CGTTCCGC | 0.119 |
| CTGGATTC | 0.0815 |
| ACTTCCTC | -0.0174 |
| CAGCCCTG | -0.351 |
| AAGACAAA | 0.17 |
| CAGCGGAC | -0.0793 |
| ATACCTCA | 0.0518 |
| ATTACAAC | 0.196 |
| TAAAGGTA | -0.0752 |
| CACTAAAG | -0.00827 |
| CTTTGATC | -0.00568 |
| ATTGCTCA | 0.0762 |
| CAATCCGG | 0.125 |
| CAGCTACC | -0.0939 |
| ATTTGCTC | 0.0587 |

| Sequence | PBM E-score |
| --- | --- |
| AGATTGTG | 0.0343 |
| TCCCGTAA | 0.116 |
| CGACGCAG | -0.216 |
| AGAGAAAG | -0.00588 |
| GCTGAAGA | 0.0402 |
| AACAGCTG | -0.0187 |
| AACTGCAC | 0.068 |
| CAACTGTA | 0.0882 |
| CCACTTCG | -0.0194 |
| ATTGTTTC | 0.275 |
| CCCGAGGA | -0.106 |
| ATGTCAGG | 0.0341 |
| CACCTAAC | -0.043 |
| CTGGTTTA | -0.14 |
| TCTCGACA | -0.0328 |
| AGTACACA | 0.235 |
| GCTTTCGA | -0.174 |
| CAAGATTA | 0.0898 |
| CTTGTCTC | -0.109 |
| CCATGCTC | -0.224 |
| CAAAAGAA | 0.191 |
| CTCTGTGC | -0.0888 |
| AAAGCCCC | -0.127 |
| CAAAGCAG | -0.0181 |
| AGGAGGAG | -0.221 |

| Sequence | PBM E-score |
| --- | --- |
| CTTTGATA | 0.116 |
| CGGTGTTC | -0.0558 |
| ATCTTTAA | 0.0357 |
| ACTTATAT | 0.254 |
| ACAGGCGT | -0.23 |
| AGGGGCGC | -0.0923 |
| AAGGAGCC | -0.259 |
| AAACTTTC | -0.00907 |
| ATTAATGA | 0.29 |
| ACGTGAGG | -0.0115 |
| ATCAGAGG | -0.178 |
| AAACAATC | 0.135 |
| ATACATGG | 0.173 |
| CAATCCCA | -0.0745 |
| CGCTTGAA | 0.0957 |
| GCTCACAC | -0.00642 |
| AGGCGAAT | 0.0401 |
| GGTACGAA | 0.0708 |
| GAGATGCA | 0.0744 |
| ATGCTGGG | -0.00432 |
| AATTTACG | 0.234 |
| ACCAGTCG | -0.175 |
| AAGTCGGC | -0.164 |
| CAGAGAAA | 0.147 |
| ATCGTGTC | 0.0401 |

| Sequence | PBM E-score |
| --- | --- |
| ACGAAGTC | 0.0346 |
| ACACTCAT | 0.111 |
| GCGGCCGC | -0.326 |
| CCCTAATC | 0.0683 |
| CATGCCCA | -0.321 |
| ACGAAAGG | 0.0313 |
| ATAAACGA | 0.208 |
| CAACGACG | -0.0932 |
| AGCGTGTG | -0.00995 |
| ACTCTAGA | 0.122 |
| ATCTTGGA | -0.0269 |
| CGAGACAC | -0.258 |
| GTTGTTTA | 0.237 |
| AGGCCAAC | -0.251 |
| GCATGGAC | -0.0369 |
| CTGAATCA | 0.104 |
| CAGACCGG | -0.221 |
| ATTGATGC | 0.181 |
| GCATAACA | 0.203 |

Quoted at random: 3 records from the list.

| Sequence | PBM E-score |
| --- | --- |
| TCCCGTAA | 0.116 |
| ATTAGACG | 0.157 |
| AATCGACA | 0.226 |
